Data on one molecule can be found in US10952999B2, “Inhibitor of cyclin-dependent kinase CDK9” (GENFLEET THERAPEUTICS (SHANGHAI) INC., priority 2017, dated 2021).

The structures appear in SMILES notation.

Common to all, as to assay: Cancer cell growth, Cell Titer-Glo cell viability assay, 72 hours
Format in all cases: cell-based
A general note: In ATP-based viability assays light output follows the ATP content of the culture.

Test [1] concerns human breast cancer cell MDA-MB-231. Particulars: MDA-MB-231, 72 hours. An excerpt:
(§1) In the examples, we used acute myelocytic leukemia (AML) OCI-AML-3, acute promyelocytic leukemia cell line NB-4, MDS-RAEB (myelodysplastic syndrome-excess blasts type) cell line SKM-1, human leukemia cell Nomo-1, acute myeloid leukemia cell line MOLM14, acute myeloid leukemia cell line MOLM13, acute myeloid leukemia cell line MV4-11, acute myeloid leukemia cell line HL-60, acute myeloid leukemia cell line OCI-AML-2, histiocytic lymphoma U-937, acute B cell leukemia cell line MEC-1, acute B cell leukemia cell line MEC-2, acute megakaryoblastic leukemia CMK, hamster lung cell CHL, hamster ovary cell CHO, human non-small cell lung cancer cell H1975, human non-small cell lung cancer cell H358, human small cell lung cancer cell H209, human lung adenocarcinoma cell H1395, human non-small cell lung cancer cell PC-9, human lung cancer cell H3122, human non-small cell lung cancer cell H2122, human non-small cell lung cancer cell H1915, human lung adenocarcinoma cell H1355, human non-small cell lung cancer cell HCC827, human breast cancer cell MDA-MB-231, human breast cancer cell MDA-MB-468, human breast cancer cell MCF-7, human breast cancer cell T47D, human breast cancer cell SK-Br-3, the above cells were purchased from ATCC.
(§2) Cell Titer-Glo® (Promega, USA) chemical self-luminescence cell viability assay kit was used to detect the number of viable cells by quantitatively measuring ATP in living cells, according to which to calculate GI50 and IC50.

Test [2] relates to human non-small cell lung cancer cell H1975. As to conditions: NCI-H1975, H1975, 72 hours.
From the text: as §1, §2

In test [3] the test system is human non-small cell lung cancer cell H358. As to conditions: NCI-H358, H358, 72 hours.
From the text: as §1, §2

The test system of test [4] is human breast cancer cell SK-Br-3. As to conditions: SK-Br-3, 72 hours.
From the text: as §1, §2

The test system of test [5] is human non-small cell lung cancer cell PC-9. As to conditions: PC-9, 72 hours.
From the text: as §1, §2

In test [6] the test system is human non-small cell lung cancer cell HCC827. Particulars: HCC827, 72 hours.
From the text: as §1, §2

Test [7] deals with human lung adenocarcinoma cell H1355. As to conditions: NCI-H1355, H1355, 72 hours.
From the text: as §1, §2

Test [8] deals with human lung cancer cell H3122. As to conditions: NCI-H3122, H3122, 72 hours.
From the text: as §1, §2

Test [9] concerns human non-small cell lung cancer cell H1915. Particulars: NCI-H1915, H1915, 72 hours.
From the text: as §1, §2

The subject of test [10] is human breast cancer cell T47D.
From the text: as §1, §2

In test [11] the test system is human lung adenocarcinoma cell H1395. Particulars: NCI-H1395, H1395, 72 hours.
From the text: as §1, §2

Test [12] has as its system human breast cancer cell MCF-7. Particulars: MCF7, MCF-7, 72 hours.
From the text: as §1, §2

Test [13] concerns human small cell lung cancer cell H209. Particulars: NCI-H209, H209, 72 hours.
From the text: as §1, §2

The subject of test [14] is human non-small cell lung cancer cell H2122. As to conditions: NCI-H2122, H2122, 72 hours.
From the text: as §1, §2

In test [15] the test system is human breast cancer cell MDA-MB-468. Particulars: MDA-MB-468, 72 hours.
From the text: as §1, §2

On to `CCc1cnn2c(NCc3ccc[n+]([O-])c3)cc(N3CCCC[C@H]3CCO)nc12` [Dinaciclib, reference compound], for which the IC50 (in general, the concentration that gives 50% inhibition) is 63 nM in [1]; 29 nM in [2]; 43 nM in test [3]; 15 nM in test [4]; 13 nM in test [5]; 28 nM in test [6]. The half-inhibitory concentration (IC50) is 25 nM in [7]; 11 nM in test [8]; 23 nM in test [9]; 54 nM in [10]; 56 nM in test [11]; 8.2 nM in test [12]. For the same molecule, the IC50 in [13] is 77 nM; in [14], 39 nM; in [15], 13 nM.
